{
  "source": "patent US10407691B2",
  "about": "(priority 2014, dated 2019)",
  "system": "Arabidopsis seedlings",
  "design": "species or system Arabidopsis thaliana",
  "conditions": "in vivo",
  "note": "Some of these results come from one statement about several compounds together. Non-standard residues stand in square brackets, D forms with d. Residues, ends and D or L forms follow the SMILES beside them. sY = N[C@@H](Cc1ccc(OS(=O)(=O)O)cc1)C(=O)O",
  "data": [
    {"compound": "CC(C)[C@H](NC(=O)[C@@H](N)Cc1c[nH]cn1)C(=O)NCC(=O)NCC(=O)NCC(=O)N[C@@H](CC(=O)O)C(=O)N[C@@H](Cc1ccc(OS(=O)(=O)O)cc1)C(=O)N1CCC[C@H]1C(=O)N1CCC[C@H]1C(=O)N1CCC[C@H]1C(=O)NCC(=O)N[C@@H](C)C(=O)N[C@@H](CC(N)=O)C(=O)N1CCC[C@H]1C(=O)N[C@@H](CCCCN)C(=O)N[C@@H](Cc1c[nH]cn1)C(=O)N[C@@H](CC(=O)O)C(=O)N1CCC[C@H]1C(=O)N1CCC[C@H]1C(=O)N1CCC[C@H]1C(=O)N[C@@H](CCCNC(=N)N)C(=O)O", "note": "[RaxX21-sY, HVGGGDY^SPPPGANPKHDPPPR] (H-HVGGGD[sY]PPPGANPKHDPPPR-OH)", "values": [
      {"measurement": "root growth relative to mock treatment", "result": "1.5-2 fold"}
    ]},
    {"compound": "DY^SGDPSANPKHDPGVPPS [AtPSY1, reference compound]", "values": [
      {"measurement": "root growth relative to mock treatment", "result": "1.5-2 fold"}
    ]}
  ]
}
